The other results are listed elsewhere or left out.
Assays:
Assay in all cases: log2 fold change, soluble protein after heating vs DMSO (PISA); higher = thermal stabilisation; K562 lysate, 10 uM; active = over 0.2 and 3.5 SD of the protein, either way, in both replicates (recomputed)
nilotinib = compound: Cc1cn(-c2cc(NC(=O)c3ccc(C)c(Nc4nccc(-c5cccnc5)n4)c3)cc(C(F)(F)F)c2)cn1 [nilotinib]
Outline: (§1)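 Soluble protein was defined as the supernatant remaining after 21,000xg for 90 min, following pooling of heated aliquots and adjustment to 0.5% NP-40 at 4°C. Before that, crude K562 extract at 1 mg/mL protein in PBS pH 7.4 with 1 mM MgCl2 was treated with 10 μM compound for 30 min and heated for 3 min across 48°C-58°C. Quantification used TMTpro 16plex LC-MS/MS with channel sums equalised, and values are log-two fold changes in thermal stability relative to solvent controls from duplicates.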

By UniProt entry, the sequences of proteins in these tests, tags left out. Where a name states a change or a piece, a line headed by the entry shows the natural chain unless it says otherwise.
UniProt Q9HAV4: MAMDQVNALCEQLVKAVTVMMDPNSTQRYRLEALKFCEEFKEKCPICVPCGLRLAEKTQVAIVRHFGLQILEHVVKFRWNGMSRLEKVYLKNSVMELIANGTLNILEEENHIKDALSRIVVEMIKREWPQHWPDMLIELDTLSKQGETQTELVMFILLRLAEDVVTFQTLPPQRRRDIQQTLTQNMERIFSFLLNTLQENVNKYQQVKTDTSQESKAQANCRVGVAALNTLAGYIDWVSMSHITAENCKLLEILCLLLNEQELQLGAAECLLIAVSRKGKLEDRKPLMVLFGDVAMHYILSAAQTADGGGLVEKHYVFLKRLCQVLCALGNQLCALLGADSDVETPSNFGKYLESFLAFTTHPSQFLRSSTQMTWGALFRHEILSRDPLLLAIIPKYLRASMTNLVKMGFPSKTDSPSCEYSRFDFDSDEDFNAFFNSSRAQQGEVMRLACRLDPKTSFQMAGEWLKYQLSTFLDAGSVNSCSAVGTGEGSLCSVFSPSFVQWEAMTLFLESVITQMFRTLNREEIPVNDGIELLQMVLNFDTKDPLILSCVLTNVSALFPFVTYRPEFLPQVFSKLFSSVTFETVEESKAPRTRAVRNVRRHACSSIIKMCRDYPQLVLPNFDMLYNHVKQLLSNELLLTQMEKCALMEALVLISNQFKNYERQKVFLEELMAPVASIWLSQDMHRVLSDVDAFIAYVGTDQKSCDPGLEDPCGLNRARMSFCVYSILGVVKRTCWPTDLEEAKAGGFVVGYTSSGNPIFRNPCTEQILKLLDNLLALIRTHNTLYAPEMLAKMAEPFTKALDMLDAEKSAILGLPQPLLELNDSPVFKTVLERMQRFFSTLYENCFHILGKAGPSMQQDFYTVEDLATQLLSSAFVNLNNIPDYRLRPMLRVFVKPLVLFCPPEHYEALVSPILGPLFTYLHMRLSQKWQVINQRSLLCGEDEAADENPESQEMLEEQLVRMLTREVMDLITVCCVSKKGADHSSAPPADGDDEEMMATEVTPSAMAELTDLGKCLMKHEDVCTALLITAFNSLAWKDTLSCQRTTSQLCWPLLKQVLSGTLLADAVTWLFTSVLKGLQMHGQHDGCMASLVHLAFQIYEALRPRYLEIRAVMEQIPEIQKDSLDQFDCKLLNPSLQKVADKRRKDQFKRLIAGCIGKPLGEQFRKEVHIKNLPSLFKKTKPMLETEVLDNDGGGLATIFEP
UniProt Q7Z3T8: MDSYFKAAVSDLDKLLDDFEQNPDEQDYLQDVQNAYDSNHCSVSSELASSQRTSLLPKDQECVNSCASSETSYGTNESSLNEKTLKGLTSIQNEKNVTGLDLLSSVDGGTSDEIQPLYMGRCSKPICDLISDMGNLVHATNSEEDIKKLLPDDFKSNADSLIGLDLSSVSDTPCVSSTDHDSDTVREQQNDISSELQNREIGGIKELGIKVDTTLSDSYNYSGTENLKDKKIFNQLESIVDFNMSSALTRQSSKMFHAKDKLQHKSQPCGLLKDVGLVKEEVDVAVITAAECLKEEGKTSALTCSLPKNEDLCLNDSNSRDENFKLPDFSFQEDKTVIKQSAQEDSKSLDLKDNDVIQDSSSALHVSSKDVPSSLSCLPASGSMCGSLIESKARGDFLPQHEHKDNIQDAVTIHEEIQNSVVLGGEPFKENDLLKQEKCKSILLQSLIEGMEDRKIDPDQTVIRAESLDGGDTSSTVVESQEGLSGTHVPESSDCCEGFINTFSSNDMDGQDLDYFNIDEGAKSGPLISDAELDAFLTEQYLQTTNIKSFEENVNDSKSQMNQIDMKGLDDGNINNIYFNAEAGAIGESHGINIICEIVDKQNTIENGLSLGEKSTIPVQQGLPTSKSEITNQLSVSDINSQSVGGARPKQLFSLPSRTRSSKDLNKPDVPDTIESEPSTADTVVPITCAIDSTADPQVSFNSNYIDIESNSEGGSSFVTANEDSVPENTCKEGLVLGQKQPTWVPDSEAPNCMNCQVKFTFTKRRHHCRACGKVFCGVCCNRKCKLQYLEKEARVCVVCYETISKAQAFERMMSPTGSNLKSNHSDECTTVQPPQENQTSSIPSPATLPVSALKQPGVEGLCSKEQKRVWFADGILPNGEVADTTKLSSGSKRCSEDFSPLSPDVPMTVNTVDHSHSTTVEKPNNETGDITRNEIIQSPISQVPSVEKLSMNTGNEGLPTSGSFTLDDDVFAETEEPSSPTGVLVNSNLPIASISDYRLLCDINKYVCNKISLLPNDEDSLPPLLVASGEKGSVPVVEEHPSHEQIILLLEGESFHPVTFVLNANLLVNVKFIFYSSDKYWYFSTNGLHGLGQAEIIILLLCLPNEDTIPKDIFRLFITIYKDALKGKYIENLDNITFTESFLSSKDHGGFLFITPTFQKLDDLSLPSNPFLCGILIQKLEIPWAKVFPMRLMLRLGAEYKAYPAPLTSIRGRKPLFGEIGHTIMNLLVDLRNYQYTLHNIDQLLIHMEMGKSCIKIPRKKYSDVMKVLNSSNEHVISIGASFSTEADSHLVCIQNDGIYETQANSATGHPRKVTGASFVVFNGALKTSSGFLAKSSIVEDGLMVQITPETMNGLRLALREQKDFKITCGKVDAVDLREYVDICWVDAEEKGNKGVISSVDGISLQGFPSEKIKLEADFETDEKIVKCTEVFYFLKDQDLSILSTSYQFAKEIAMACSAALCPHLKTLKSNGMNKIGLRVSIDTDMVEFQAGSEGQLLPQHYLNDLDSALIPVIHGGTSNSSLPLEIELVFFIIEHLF
UniProt Q86T24: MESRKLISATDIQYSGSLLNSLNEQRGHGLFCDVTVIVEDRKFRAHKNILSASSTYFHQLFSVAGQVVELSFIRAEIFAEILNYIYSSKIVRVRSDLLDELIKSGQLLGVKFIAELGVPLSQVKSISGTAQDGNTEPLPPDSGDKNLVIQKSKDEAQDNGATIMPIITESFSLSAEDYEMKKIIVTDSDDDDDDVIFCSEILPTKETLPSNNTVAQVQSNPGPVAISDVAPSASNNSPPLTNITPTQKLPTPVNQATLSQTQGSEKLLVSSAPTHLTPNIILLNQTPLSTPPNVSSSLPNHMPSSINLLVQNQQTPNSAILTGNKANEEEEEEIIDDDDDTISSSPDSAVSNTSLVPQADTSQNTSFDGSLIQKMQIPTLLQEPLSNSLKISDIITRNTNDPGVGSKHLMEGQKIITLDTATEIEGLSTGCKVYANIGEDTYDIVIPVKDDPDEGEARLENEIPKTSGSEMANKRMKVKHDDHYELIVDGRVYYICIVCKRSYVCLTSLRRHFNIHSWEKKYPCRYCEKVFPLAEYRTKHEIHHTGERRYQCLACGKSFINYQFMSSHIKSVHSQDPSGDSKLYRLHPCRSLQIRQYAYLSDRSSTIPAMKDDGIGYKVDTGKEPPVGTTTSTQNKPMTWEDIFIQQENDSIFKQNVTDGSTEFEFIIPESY
UniProt Q9C0B5: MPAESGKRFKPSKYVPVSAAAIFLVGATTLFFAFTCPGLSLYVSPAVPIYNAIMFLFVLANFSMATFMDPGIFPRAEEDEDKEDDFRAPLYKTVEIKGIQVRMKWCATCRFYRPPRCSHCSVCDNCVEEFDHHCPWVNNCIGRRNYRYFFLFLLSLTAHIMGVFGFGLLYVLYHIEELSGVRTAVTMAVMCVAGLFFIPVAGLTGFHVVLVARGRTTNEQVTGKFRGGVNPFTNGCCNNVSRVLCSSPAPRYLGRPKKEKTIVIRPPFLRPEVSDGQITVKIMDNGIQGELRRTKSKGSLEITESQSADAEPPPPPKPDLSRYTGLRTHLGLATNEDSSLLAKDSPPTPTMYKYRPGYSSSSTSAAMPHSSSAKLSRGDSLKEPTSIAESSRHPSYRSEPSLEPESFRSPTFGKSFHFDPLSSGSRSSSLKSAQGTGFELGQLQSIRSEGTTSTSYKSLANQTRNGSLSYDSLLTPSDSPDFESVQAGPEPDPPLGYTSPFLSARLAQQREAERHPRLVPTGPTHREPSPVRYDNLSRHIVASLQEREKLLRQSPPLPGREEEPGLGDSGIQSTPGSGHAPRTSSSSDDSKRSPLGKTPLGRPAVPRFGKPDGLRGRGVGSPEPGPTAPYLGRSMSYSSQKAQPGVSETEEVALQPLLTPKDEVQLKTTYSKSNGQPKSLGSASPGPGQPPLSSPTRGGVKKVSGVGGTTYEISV
UniProt Q5BJH7: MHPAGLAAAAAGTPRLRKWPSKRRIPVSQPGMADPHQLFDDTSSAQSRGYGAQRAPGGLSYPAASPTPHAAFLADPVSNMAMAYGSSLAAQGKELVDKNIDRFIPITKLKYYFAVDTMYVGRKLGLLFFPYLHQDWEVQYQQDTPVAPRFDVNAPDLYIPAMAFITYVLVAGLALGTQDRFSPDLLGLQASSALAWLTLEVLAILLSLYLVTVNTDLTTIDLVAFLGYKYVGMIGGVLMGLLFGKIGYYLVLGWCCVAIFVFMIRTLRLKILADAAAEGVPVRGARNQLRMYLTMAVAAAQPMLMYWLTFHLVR
UniProt P62699: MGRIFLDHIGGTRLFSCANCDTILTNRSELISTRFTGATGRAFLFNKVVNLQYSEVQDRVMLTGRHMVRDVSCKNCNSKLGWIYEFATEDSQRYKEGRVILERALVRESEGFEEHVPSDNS
UniProt O75152: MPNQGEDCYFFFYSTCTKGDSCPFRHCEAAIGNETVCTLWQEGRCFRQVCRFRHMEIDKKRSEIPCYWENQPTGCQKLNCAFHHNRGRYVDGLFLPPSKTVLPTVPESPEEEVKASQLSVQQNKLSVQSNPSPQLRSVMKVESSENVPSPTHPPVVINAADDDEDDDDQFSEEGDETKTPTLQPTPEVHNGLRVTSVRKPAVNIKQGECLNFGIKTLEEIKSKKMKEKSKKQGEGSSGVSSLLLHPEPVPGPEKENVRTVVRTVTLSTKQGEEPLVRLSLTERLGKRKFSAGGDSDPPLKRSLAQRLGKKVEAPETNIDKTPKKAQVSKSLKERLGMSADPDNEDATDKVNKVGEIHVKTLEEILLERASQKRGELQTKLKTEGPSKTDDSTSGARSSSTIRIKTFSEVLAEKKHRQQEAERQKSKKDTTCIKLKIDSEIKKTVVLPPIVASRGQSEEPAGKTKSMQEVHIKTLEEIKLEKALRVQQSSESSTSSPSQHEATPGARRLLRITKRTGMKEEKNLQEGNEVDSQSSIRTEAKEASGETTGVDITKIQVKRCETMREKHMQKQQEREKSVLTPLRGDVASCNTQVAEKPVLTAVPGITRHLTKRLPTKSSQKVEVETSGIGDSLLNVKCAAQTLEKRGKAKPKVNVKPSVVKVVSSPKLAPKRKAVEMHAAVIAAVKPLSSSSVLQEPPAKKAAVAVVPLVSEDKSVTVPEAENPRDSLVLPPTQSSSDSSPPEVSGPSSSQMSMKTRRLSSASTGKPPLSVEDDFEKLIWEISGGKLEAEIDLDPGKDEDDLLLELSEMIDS
UniProt O95619, whole entry, looked up: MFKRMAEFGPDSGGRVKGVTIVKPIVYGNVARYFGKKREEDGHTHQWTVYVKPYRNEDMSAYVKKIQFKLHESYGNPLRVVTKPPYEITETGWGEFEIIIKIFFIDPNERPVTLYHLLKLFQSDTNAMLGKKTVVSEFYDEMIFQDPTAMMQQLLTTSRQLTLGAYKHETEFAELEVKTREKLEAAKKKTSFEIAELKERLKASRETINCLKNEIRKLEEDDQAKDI
UniProt Q9H0D6: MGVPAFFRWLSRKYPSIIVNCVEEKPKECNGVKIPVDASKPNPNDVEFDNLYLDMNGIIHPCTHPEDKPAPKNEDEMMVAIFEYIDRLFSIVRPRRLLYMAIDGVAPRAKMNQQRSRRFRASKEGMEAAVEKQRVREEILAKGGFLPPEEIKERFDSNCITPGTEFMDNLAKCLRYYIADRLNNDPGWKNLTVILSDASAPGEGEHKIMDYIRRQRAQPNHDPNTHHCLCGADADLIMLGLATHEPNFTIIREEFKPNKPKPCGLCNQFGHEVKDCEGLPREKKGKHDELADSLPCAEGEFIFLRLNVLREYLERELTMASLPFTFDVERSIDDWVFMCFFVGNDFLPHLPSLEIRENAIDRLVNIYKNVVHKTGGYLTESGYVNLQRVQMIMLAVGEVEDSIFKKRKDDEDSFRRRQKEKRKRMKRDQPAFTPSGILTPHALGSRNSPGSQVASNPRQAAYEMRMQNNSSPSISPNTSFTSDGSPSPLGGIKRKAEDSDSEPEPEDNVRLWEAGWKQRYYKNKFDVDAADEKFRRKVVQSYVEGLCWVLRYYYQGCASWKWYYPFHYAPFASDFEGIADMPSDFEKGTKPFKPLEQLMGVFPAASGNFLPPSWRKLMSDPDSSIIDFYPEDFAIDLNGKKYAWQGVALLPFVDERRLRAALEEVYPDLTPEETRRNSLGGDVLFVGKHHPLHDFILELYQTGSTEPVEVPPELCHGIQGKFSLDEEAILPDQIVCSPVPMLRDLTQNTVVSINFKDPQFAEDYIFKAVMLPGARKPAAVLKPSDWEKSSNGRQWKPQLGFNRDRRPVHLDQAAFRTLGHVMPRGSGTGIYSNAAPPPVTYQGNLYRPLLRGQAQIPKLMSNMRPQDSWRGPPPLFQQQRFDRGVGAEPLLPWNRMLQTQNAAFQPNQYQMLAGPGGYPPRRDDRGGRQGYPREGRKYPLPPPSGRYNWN

[1] = compound: Cc1nc(Nc2n[nH]c3c2CN(C(=O)N[C@H](CN(C)C)c2ccccc2)C3(C)C)c2sccc2n1
Outline: as §1

dasatinib = compound: Cc1nc(Nc2ncc(C(=O)Nc3c(C)cccc3Cl)s2)cc(N2CCN(CCO)CC2)n1 [dasatinib]
Outline: as §1

[2] = compound: Cc1ncc(-c2ccnc(Nc3ccc(S(C)(=O)=O)cc3)n2)n1C(C)C
Outline: as §1

[3] = compound: Cn1cc(-c2ccc3c(c2)CCN3C(=O)Cc2cccc(C(F)(F)F)c2)c2c(N)ncnc21
Outline: as §1

quisinostat = compound: Cn1cc(CNCC2CCN(c3ncc(C(=O)NO)cn3)CC2)c2ccccc21 [quisinostat]
Outline: as §1

tipifarnib = compound: Cn1cncc1[C@@](N)(c1ccc(Cl)cc1)c1ccc2c(c1)c(-c1cccc(Cl)c1)cc(=O)n2C [tipifarnib]
Outline: as §1

[4] = compound: NC(=O)Nc1cc(-c2cccc(F)c2)sc1C(=O)N[C@H]1CCCNC1
Outline: as §1

[5] = compound: NC(=O)c1cnc(N[C@@H]2CCCC[C@@H]2N)nc1Nc1cccc(-n2nccn2)c1
Outline: as §1

[6] = compound: NC1(c2ccc(-c3nc4ccn5c(=O)[nH]nc5c4cc3-c3ccccc3)cc2)CCC1
Outline: as §1

[7] = compound: NCC(=O)Nc1ccc(-n2nc(C(F)(F)F)cc2-c2ccc3c(ccc4ccccc43)c2)cc1
Outline: as §1

vorinostat = compound: O=C(CCCCCCC(=O)Nc1ccccc1)NO [vorinostat]
Outline: as §1

silmitasertib = compound: O=C(O)c1ccc2c(c1)nc(Nc1cccc(Cl)c1)c1ccncc12 [silmitasertib]
Outline: as §1

[8] = compound: O=C1NC(=O)C(c2cnc3ccccn23)=C1c1cn2c3c(cc(F)cc13)CN(C(=O)N1CCCCC1)CC2
Outline: as §1

entospletinib = compound: c1cn2cc(-c3ccc4cn[nH]c4c3)nc(Nc3ccc(N4CCOCC4)cc3)c2n1 [entospletinib]
Outline: as §1

Measured: log2 fold change

XPO5 (UniProt Q9HAV4)
inactive: nilotinib -0.025 | [1] -0.016 | dasatinib -0.068 | [2] 0.013 | [3] 0.005 | quisinostat -0.092 | tipifarnib -0.015 | [4] 0.029 | [5] 0.023 | [6] -0.024 | [7] 0 | silmitasertib 0.035 | [8] 0.011 | entospletinib 0.015
active: vorinostat -0.574

ZFYVE16 (UniProt Q7Z3T8)
inactive: nilotinib 0.005 | [1] -0.01 | dasatinib 0.003 | [2] 0.022 | [3] 0.014 | quisinostat -0.011 | tipifarnib -0.011 | [4] 0.016 | [5] 0.019 | [6] -0.019 | [7] 0.021 | vorinostat -0.04 | silmitasertib 0.018 | [8] -0.004 | entospletinib -0.025

ZBTB33 (UniProt Q86T24)
inactive: nilotinib -0.009 | [1] 0.084 | dasatinib -0.06 | [2] -0.052 | [3] 0.029 | quisinostat -0.08 | tipifarnib -0.083 | [4] 0.133 | [5] 0 | [6] -0.035 | [7] 0.061 | vorinostat 0.103 | silmitasertib -0.082 | [8] 0.009 | entospletinib -0.033

ZC3H13 (UniProt Q5T200)
inactive: nilotinib -0.033 | [1] 0.137 | dasatinib -0.035 | [2] 0.144 | [3] -0.044 | quisinostat -0.067 | tipifarnib -0.184 | [4] 0.002 | [5] 0.028 | [6] -0.049 | [7] 0.174 | vorinostat -0.052 | silmitasertib -0.008 | [8] -0.104 | entospletinib 0.001

ZFP91 (UniProt Q96JP5)
inactive: nilotinib -0.08 | [1] -0.004 | dasatinib 0.054 | [2] -0.014 | [3] -0.014 | quisinostat -0.002 | tipifarnib -0.021 | [4] -0.023 | [5] 0.016 | [6] -0.042 | [7] 0.002 | vorinostat 0.049 | silmitasertib 0.016 | [8] 0.073 | entospletinib 0.014

XRN1 (UniProt Q8IZH2)
inactive: nilotinib 0.05 | [1] -0.001 | dasatinib -0.112 | [2] 0.074 | [3] 0.043 | quisinostat -0.046 | tipifarnib -0.061 | [4] 0.078 | [5] -0.069 | [6] -0.009 | [7] 0.021 | vorinostat -0.04 | silmitasertib -0.028 | [8] 0.043 | entospletinib 0.043

ZFPL1 (UniProt O95159)
inactive: nilotinib -0.072 | [1] 0.09 | dasatinib -0.032 | [2] 0.122 | [3] -0.085 | quisinostat 0.042 | tipifarnib 0.095 | [4] 0.009 | [5] 0.273 | [6] 0.011 | [7] -0.056 | vorinostat 0.303 | silmitasertib 0.043 | [8] 0.028 | entospletinib 0.001

YTHDF3 (UniProt Q7Z739)
inactive: nilotinib -0.246 | [1] -0.038 | dasatinib 0.022 | [2] 0.014 | [3] -0.006 | quisinostat -0.06 | tipifarnib -0.311 | [4] 0.063 | [5] -0.016 | [6] -0.039 | [7] 0.064 | vorinostat 0.03 | silmitasertib -0.084 | [8] -0.169 | entospletinib 0.006

Taken from the listing (four entries):
ZBTB33 (UniProt Q86T24)
inactive: nilotinib -0.009 | [1] 0.084 | dasatinib -0.06 | [2] -0.052 | [3] 0.029 | quisinostat -0.08 | tipifarnib -0.083 | [4] 0.133 | [5] 0 | [6] -0.035 | [7] 0.061 | vorinostat 0.103 | silmitasertib -0.082 | [8] 0.009 | entospletinib -0.033

ZC3H13 (UniProt Q5T200)
inactive: nilotinib -0.033 | [1] 0.137 | dasatinib -0.035 | [2] 0.144 | [3] -0.044 | quisinostat -0.067 | tipifarnib -0.184 | [4] 0.002 | [5] 0.028 | [6] -0.049 | [7] 0.174 | vorinostat -0.052 | silmitasertib -0.008 | [8] -0.104 | entospletinib 0.001

ZFP91 (UniProt Q96JP5)
inactive: nilotinib -0.08 | [1] -0.004 | dasatinib 0.054 | [2] -0.014 | [3] -0.014 | quisinostat -0.002 | tipifarnib -0.021 | [4] -0.023 | [5] 0.016 | [6] -0.042 | [7] 0.002 | vorinostat 0.049 | silmitasertib 0.016 | [8] 0.073 | entospletinib 0.014

XRN1 (UniProt Q8IZH2)
inactive: nilotinib 0.05 | [1] -0.001 | dasatinib -0.112 | [2] 0.074 | [3] 0.043 | quisinostat -0.046 | tipifarnib -0.061 | [4] 0.078 | [5] -0.069 | [6] -0.009 | [7] 0.021 | vorinostat -0.04 | silmitasertib -0.028 | [8] 0.043 | entospletinib 0.043

Next entries.

YOD1 (UniProt Q5VVQ6)
inactive: nilotinib 0 | [1] -0.024 | dasatinib -0.006 | [2] 0.031 | [3] 0 | quisinostat -0.018 | tipifarnib 0.002 | [4] 0.055 | [5] 0.023 | [6] -0.019 | [7] -0.003 | vorinostat -0.003 | silmitasertib 0.059 | [8] -0.043 | entospletinib -0.032

ZDHHC5 (UniProt Q9C0B5)
inactive: nilotinib -0.019 | [1] 0.104 | dasatinib 0.026 | [2] 0.045 | [3] -0.027 | quisinostat -0.021 | tipifarnib 0.006 | [4] -0.007 | [5] 0.009 | [6] 0.025 | [7] 0.005 | vorinostat 0.109 | silmitasertib 0.01 | [8] 0.009 | entospletinib -0.048

YIF1B (UniProt Q5BJH7)
inactive: nilotinib 0.062 | [1] -0.019 | dasatinib -0.013 | [2] -0.033 | [3] 0.002 | quisinostat 0.003 | tipifarnib -0.054 | [4] -0.027 | [5] -0.031 | [6] -0.126 | [7] -0.007 | vorinostat 0.123 | silmitasertib -0.004 | [8] -0.009 | entospletinib -0.018

YWHAH (UniProt Q04917)
inactive: nilotinib 0.016 | [1] 0 | dasatinib 0.038 | [2] 0.058 | [3] 0.002 | quisinostat 0.15 | tipifarnib 0.004 | [4] -0.024 | [5] 0.002 | [6] 0.013 | [7] -0.011 | vorinostat 0.066 | silmitasertib 0.026 | [8] -0.017 | entospletinib 0.003

YPEL5 (UniProt P62699)
inactive: nilotinib -0.082 | [1] 0.028 | dasatinib -0.081 | [2] -0.019 | [3] 0.003 | quisinostat -0.018 | tipifarnib 0.049 | [4] 0.034 | [5] -0.004 | [6] 0.099 | [7] -0.04 | vorinostat -0.147 | silmitasertib -0.055 | [8] -0.007 | entospletinib -0.039

YWHAE (UniProt P62258)
inactive: nilotinib 0.008 | [1] -0.011 | dasatinib 0.031 | [2] -0.023 | [3] 0 | quisinostat 0.003 | tipifarnib 0 | [4] -0.01 | [5] 0.005 | [6] 0.005 | [7] 0.018 | vorinostat 0.112 | silmitasertib 0.003 | [8] -0.018 | entospletinib -0.008

ZC3H11A (UniProt O75152)
active: vorinostat -0.375
inactive: nilotinib -0.021 | [1] -0.006 | dasatinib -0.021 | [2] 0.041 | [3] -0.022 | quisinostat -0.094 | tipifarnib -0.007 | [4] 0 | [5] 0.004 | [6] 0.035 | [7] 0.123 | silmitasertib -0.026 | [8] 0.062 | entospletinib -0.009

YEATS4 (UniProt O95619)
inactive: nilotinib 0.1 | [1] 0.154 | dasatinib 0.11 | [2] -0.196 | [3] 0.035 | quisinostat -0.038 | tipifarnib 0.071 | [4] -0.011 | [5] 0.018 | [6] 0.044 | [7] 0.042 | vorinostat 0.057 | silmitasertib -0.029 | [8] -0.046 | entospletinib -0.037

ZC2HC1A (UniProt Q96GY0)
inactive: nilotinib 0 | [1] 0.005 | dasatinib -0.085 | [2] 0.002 | [3] 0.1 | quisinostat -0.082 | tipifarnib -0.02 | [4] -0.014 | [5] 0.04 | [6] -0.092 | [7] 0.104 | vorinostat -0.066 | silmitasertib 0.054 | [8] -0.008 | entospletinib -0.005

XRN2 (UniProt Q9H0D6)
inactive: nilotinib 0.011 | [1] 0.016 | dasatinib 0.008 | [2] -0.001 | [3] 0.015 | quisinostat -0.012 | tipifarnib -0.022 | [4] 0.007 | [5] 0 | [6] -0.035 | [7] -0.059 | vorinostat 0.026 | silmitasertib -0.037 | [8] -0.035 | entospletinib -0.027

XPR1 (UniProt Q9UBH6)
inactive: nilotinib 0.04 | [1] 0.019 | dasatinib 0.024 | [2] 0.01 | [3] 0.005 | quisinostat -0.023 | tipifarnib -0.021 | [4] -0.034 | [5] -0.007 | [6] 0.079 | [7] 0.026 | vorinostat -0.076 | silmitasertib -0.072 | [8] 0.031 | entospletinib 0.093

XYLB (UniProt O75191)
inactive: nilotinib 0.082 | [1] 0.024 | dasatinib 0.015 | [2] -0.027 | [3] -0.095 | quisinostat 0.024 | tipifarnib 0.07 | [4] -0.017 | [5] -0.006 | [6] -0.029 | [7] 0.12 | vorinostat -0.146 | silmitasertib 0.006 | [8] 0 | entospletinib 0.067

ZDHHC4 (UniProt Q9NPG8)
inactive: nilotinib -0.052 | [1] 0.144 | dasatinib 0.083 | [2] -0.032 | [3] 0.016 | quisinostat -0.042 | tipifarnib 0.097 | [4] 0.042 | [5] 0.015 | [6] 0.122 | vorinostat -0.168 | silmitasertib -0.18 | [8] 0.084
